{"source": "patent US9186340B2", "about": "“Ischemia/reperfusion protection compositions and methods of using” (priority 2007, dated 2015)", "key": {"[1]": {"test_system": "heart of hibernating ground squirrels", "test": "13C NMR of heart metabolites after injection of 13C-BHB or 13C-glucose in hibernating ground squirrels", "details": "IP 1 ml of 1 M"}, "[2]": {"test_system": "brain of hibernating ground squirrels", "test": "13C NMR of brain extracts after injection of 13C-D-BHB or 13C-glucose in hibernating ground squirrels", "type": "in vivo, ground squirrel", "details": "1 ml of 1 M injected"}}}
{"smiles": "OC[C@H]1OC(O)[C@H](O)[C@@H](O)[C@@H]1O", "note": "(some centres unmarked) [^13C-glucose, [1-^13C] glucose]", "values": [{"measurement": "lactate in heart after injection", "setting": "[1]", "value": "very large spike in lactate"}, {"measurement": "utilization and incorporation into TCA cycle metabolites in heart", "setting": "[1]", "value": "not utilized as efficiently as BHB"}]}
{"smiles": "C[C@@H](O)CC(=O)O", "note": "[D-BHB, D-beta-hydroxybutyrate]", "values": [{"measurement": "generation of lactate in brain", "setting": "[2]", "value": "does not result in the generation of a significant amount of lactate"}, {"measurement": "substrate quality in brain relative to glucose", "setting": "[2]; high-field NMR of brain extracts", "value": "better substrate than glucose"}, {"measurement": "utilization and incorporation into TCA cycle metabolites in heart", "setting": "[1]", "value": "metabolic intermediates derived from the TCA cycle were produced at low body temperature"}]}
